The record followed here is patent publication US20250052678A1, “EVALUATION METHOD, EVALUATION DEVICE, AND INFORMATION PROCESSING PROGRAM” (HAMAMATSU PHOTONICS K.K., priority 2021, published 2025).

The data set has as its system Human liver cancer-derived cells (HepG2) cell aggregates. The experiment in a line: Oleic acid concentration dependence of lipid droplet region in HepG2 cell aggregates, measuring method C (Example 3). The conditions noted are these: 2 days. It is filed as cell-based. The protocol:
Human liver cancer-derived cells (HepG2) were cultured for 2 days in a cell culture vessel (“EZSPHERE” manufactured by AGC-Techno Glass Co., Ltd.) having low-cell-adhesive compartments to prepare a cell aggregate. The low-cell-adhesive compartments are provided with a low-protein-adhesive coat. Cell aggregates were formed in a DMEM medium containing 10% fetal bovine serum in the low-cell-adhesive compartments. To the cell aggregate, sodium oleate was added at a final concentration of 75 μM, 150 μM or 300 μM in a DMEM medium containing 1% fatty acid-free bovine serum albumin instead of fetal bovine serum, and the cell aggregate was cultured for 2 days to induce formation of lipid droplets. A cell aggregate cultured for 2 days in a DMEM medium containing 1% fatty acid-free bovine serum albumin instead of fetal bovine serum without adding sodium oleate was also prepared. For each sample in which the concentration of oleic acid was 0 μM, 75 μM, 150 μM or 300 μM, the refractive index distribution data of the cell aggregate was acquired by the refractive index distribution measuring method C. The results of coloring for each refractive index are shown in A to C of FIG. 43. In the obtained refractive index distribution data, a region where the refractive index (n) was greater than 1.340 was determined as a cell aggregate region. In each sample, six cell aggregate regions having diameters of 75 to 150 μm and volumes of 500 to 5000 pL were extracted as evaluation objects. The diameters and volumes of the six cell aggregates of interest are shown in A and B of FIG. 44, respectively. […] In the cell aggregate region of interest, a region having a refractive index (n) of greater than 1.375 was determined as a lipid droplet region. The ratio of the volume of the lipid droplet region to the volume of the cell aggregate region of interest (also referred to as the “ratio of the lipid droplet region”).) was calculated.

Regarding `CCCCCCCC/C=C\CCCCCCCC(=O)O` [oleic acid], the “average diameter of the six cell aggregates of interest” value (from here on “average diameter”) (oleic acid 75 μM, standard deviation 13.3 μm) was determined as 111.5 μm; the “average diameter” value (oleic acid 150 μM, standard deviation 14.4 μm) was 109.6 μm; the “average diameter” value (oleic acid 300 μM, standard deviation 15.3 μm) was determined as 103.0 μm.
